# Reference: patent publication US4080381A, “Water soluble tertiary amine boranes” (Mine Safety Appliances Company, priority 1976, dated 1978)
# Assay: electroless gold plating: reduction of gold salt solution on palladium chloride activated nickel plate
# Description: The amine boranes of this invention are useful as reducing agents in aqueous solutions. For example, solutions of gold salts are reduced by the water soluble amine boranes to plate gold on a catalytically active surface contacted with the solution, as is more fully described in the above referenced co pending application. To illustrate, the pH of one hundred ml of a 3.0 g/l solution of KAuCl4 was raised to 12.5 by the addition of NaOH. In a separate beaker, the pH of 100 ml of a 2.00g/l solution of CH3 OCH2 CH2 N(CH3)2 :BH3 was also raised to 12.5 by the addtion of NaOH. […] A palladium chloride activated substrate of nickel plate was immersed in the stirred bath for one hour at room temperature.
compound,measurement,setting,value
[BH3-][N+](C)(C)CCOC [Example 4],weight increase (gold plating),"100 ml 3.0 g/l KAuCl4 + 100 ml 2.00 g/l amine borane, pH 12.5, one hour, room temperature",0.34 mg/cm^2
same,onset of plating,"stirred bath, pH 12.5, room temperature",Plating was noted immediately
